Assay results: patent US20100137221A1, “PEPTIDES THAT INTERACT WITH TOPOISOMERASE I AND METHODS THEREOF” (UNIVERSITY UTAH RESEARCH FOUNDATION, priority 2007, published 2010)
Results are given in words; binding and its absence hold for the method and conditions named. Some binding calls cover weakened binding; strength is not graded here.

Experiments:
human topoisomerase I [1] = molecular target: T1, human topoisomerase I (human, UniProt P11387 1-765, limits assumed); experiment: phage display biopanning against top1-DNA-9AC, analytical titering against top1
T1 construct: also called top1; top 1
T1 sequence (looked up): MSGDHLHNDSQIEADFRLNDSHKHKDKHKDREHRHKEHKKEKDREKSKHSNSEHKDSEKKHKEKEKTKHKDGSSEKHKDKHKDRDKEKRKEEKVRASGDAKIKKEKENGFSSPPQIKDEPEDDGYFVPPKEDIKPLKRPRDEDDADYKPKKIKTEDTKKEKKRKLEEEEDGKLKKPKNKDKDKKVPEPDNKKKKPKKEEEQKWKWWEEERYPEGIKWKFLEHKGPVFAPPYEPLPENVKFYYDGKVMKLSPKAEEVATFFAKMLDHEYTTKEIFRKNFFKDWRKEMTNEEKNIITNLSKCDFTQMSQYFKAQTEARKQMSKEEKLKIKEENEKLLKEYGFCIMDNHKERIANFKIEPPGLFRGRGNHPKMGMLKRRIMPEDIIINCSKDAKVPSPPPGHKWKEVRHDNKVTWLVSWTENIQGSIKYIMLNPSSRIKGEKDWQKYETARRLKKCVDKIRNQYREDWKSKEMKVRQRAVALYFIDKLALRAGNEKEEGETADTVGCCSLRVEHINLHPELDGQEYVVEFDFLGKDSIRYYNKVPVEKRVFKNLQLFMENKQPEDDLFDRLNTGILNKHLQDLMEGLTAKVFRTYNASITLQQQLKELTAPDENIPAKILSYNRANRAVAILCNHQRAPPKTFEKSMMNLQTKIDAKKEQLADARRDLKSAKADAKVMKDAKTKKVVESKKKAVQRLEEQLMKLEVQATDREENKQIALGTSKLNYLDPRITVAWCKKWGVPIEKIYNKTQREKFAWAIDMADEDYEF
Method: Phage display: Phage display was performed as described by Smith (Parmley 1989). Briefly, top1 was first biotinylated with a biotin derivative containing a spacer engineered to reduced steric interference (Pierce EZ-Link Biotin-PEO-Amine). The reaction was performed at a 5:1 molar ratio of biotin:top1 in 10 mM HEPES (pH 8.2) buffered 500 mM NaCl. The unreacted biotin was removed by gel filtration in a Biospin 30 column (BioRad) and biotinylated top1 was assayed for activity using a pull down method with streptavidin coated beads. The biotinylated top1 maintained catalytic activity. For phage display, 20 μg biotinylated top1 was reacted with a mixture of pBR322 and 9AC and 20 μg was applied to a 30 mm plastic petri dish coated with 10 μg of neutravidin (Pierce). The dish was then blocked with 3.0% bovine serum albumin, and 10 μl of a 10⁹/μl titer phage library in 100 μl TBS-0.05% Tween was added. Phage were allowed to associate with gentle rocking for 2 hours at 4° C., and then washed repeatedly over 2 hours at 4° C. with buffered saline containing 0.1% Tween. […]
Analytical titering: Ten μl of amplified phage clones (approximately 10¹² cfu) were incubated in 50 nM top1 for one hour at 4° C. on a rocker. […] Competent E. coli were added directly to the washed plates and the output assessed by counting a 10⁻⁶ dilution of the culture on tetracycline plates (FIG. 1). […]

human topoisomerase I [2] = molecular target: T1, human topoisomerase I; experiment: fluorescence polarization, human placental 91 kDa top1 titrated into 500 nM fluorescein-labeled T1BP1

binding (human topoisomerase I [1]): binds
binding (human topoisomerase I [2]): binds
Binder: SSQVVGVPQLMQSSP (also called CPP2) [T1BP1]
